Assay [1] deals with Focal Adhesion Kinase (human (endogenous in normal human lung fibroblasts)) (UniProt Q05397). The assay can be described thus: co-IP; lysates of serum-starved human lung fibroblasts on fibronectin without PDGF-BB (vehicle); sepharose-coupled anti-FAK antibody, overnight at 4 degree; blot with anti-β1.
For assay [2] the target is unchanged. The description is as above. This is another data set of the same source.
Assay [3] has the same target. The assay is described as follows: co-IP; lysates of serum-starved human lung fibroblasts on fibronectin treated with PDGF-BB (2 ng/ml, time course up to 20 h; also with FAK inhibitor PF-573228 up to 5 μM, or control IgG); sepharose-coupled anti-FAK antibody, overnight at 4 degree; blot with anti-β1.

By UniProt entry, the sequences of proteins in these tests, tags left out. Where a name states a change or a piece, a line headed by the entry shows the natural chain unless it says otherwise.
UniProt Q05397: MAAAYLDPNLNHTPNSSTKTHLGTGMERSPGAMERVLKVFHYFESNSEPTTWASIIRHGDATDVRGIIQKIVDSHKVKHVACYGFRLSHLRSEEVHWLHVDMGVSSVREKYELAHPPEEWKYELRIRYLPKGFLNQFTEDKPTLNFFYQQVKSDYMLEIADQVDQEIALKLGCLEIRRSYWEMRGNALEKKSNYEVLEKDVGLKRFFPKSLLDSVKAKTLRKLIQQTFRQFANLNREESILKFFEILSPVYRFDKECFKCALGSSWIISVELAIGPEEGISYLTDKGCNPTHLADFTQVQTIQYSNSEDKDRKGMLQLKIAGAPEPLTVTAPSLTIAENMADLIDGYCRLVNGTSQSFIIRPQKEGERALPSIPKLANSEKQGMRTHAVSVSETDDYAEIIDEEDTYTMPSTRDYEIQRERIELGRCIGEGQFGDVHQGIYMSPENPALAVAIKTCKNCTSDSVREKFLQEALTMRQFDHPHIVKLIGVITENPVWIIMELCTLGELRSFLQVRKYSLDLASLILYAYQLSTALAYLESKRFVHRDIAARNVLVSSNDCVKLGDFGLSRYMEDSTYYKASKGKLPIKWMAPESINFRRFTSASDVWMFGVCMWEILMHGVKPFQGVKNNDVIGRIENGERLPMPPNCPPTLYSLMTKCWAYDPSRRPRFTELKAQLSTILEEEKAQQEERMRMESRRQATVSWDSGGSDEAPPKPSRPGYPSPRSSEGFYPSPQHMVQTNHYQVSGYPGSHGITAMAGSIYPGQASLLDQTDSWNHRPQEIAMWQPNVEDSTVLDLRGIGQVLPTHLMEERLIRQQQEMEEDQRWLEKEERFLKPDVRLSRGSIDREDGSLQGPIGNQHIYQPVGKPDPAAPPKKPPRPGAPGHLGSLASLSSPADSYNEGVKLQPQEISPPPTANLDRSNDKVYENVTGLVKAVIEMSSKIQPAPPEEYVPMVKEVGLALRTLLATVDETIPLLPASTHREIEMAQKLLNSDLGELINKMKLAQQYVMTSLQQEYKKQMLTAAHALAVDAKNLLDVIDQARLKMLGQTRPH
UniProt P05556: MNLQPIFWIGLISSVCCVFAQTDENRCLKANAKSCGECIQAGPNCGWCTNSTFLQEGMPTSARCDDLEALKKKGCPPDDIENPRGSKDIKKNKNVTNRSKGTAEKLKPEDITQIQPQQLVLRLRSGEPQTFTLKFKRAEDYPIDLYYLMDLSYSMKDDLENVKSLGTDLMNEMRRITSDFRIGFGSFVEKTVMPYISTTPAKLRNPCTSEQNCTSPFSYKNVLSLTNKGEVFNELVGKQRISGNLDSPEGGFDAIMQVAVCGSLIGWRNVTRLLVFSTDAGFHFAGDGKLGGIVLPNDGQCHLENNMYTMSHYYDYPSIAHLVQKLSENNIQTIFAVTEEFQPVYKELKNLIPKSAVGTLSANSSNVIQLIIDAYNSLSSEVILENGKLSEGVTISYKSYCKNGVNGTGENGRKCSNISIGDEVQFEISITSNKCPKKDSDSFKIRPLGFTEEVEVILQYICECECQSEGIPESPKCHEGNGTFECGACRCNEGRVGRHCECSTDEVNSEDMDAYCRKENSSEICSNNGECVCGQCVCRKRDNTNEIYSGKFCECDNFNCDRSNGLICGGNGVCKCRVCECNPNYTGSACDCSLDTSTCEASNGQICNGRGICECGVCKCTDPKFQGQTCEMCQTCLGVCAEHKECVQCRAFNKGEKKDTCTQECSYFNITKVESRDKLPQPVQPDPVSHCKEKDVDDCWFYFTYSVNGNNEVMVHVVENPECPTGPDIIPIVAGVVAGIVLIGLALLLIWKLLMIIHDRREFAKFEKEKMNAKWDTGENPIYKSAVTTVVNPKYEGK

These are yes or no findings as the source states them, for the method shown. Binding seen in cells or lysates may run through a third protein. Some results given as binding are weak or reduced against the parent protein; the word gives no strength.

As to “integrin β1 (from UniProt P05556 21-798) (receptor)”, the binding result is reported as “binds weakly” in assay [1], “no binding (condition: without PDGF-BB stimulation)” in assay [2] and “binds” in assay [3].

The record behind these values is publication PMC4725867.
